PMC6072100, “Exploring the links between peptoid antibacterial activity and toxicity” (MedChemComm, 2017)
Square brackets hold non-standard residues; d marks the D form. Peptide text beside a SMILES is read from it. N(4-F-Bzl)Gly = O=C(O)CNCc1ccc(F)cc1; Nlys = NCCCCNCC(=O)O

System: Escherichia coli K-12 wild-type strain (W3110/ATCC27325)
Assay type: cell-based
Conditions: for Selectivity Index HaCaT, E. coli: ED50 HaCaT / MIC E. coli; for Selectivity Index HepG2, E. coli: ED50 HepG2 / MIC E. coli
Description: (§1) Escherichia coli K-12 wild-type strain (W3110/ATCC27325, F^–, λ^–, rpoS(Am), rph-1, Inv(rrnD-rrnE)), Pseudomonas aeruginosa PA01 (ATCC 15692) Staphylococcus aureus (3R7089 strain Oxford/ATCC9144) and Staphylococcus epidermidis (laboratory strain from clinical isolate) were selected for bacteriological studies as representative Gram-negative (E. coli and P. aeruginosa) and Gram-positive (S. aureus and S. epidermidis) species. Bacterial cultures were prepared by streaking bacterial strains onto LB agar plates with an inoculation loop and incubated overnight at 37 °C. A single colony was selected and placed in 5 mL of Iso-sensitest broth (Oxoid, ThermoScientific) and incubated with shaking for 16–18 h at 37 °C to provide liquid cultures for testing.
MIC values were obtained according to the protocol described by J. M. Andrews et al.[58] and were conducted in 96-well plates (Sarstedt). Bacteria were grown from overnight cultures in Iso-sensitest broth to an A650nm of 0.07 equivalent to a 0.5 MacFarland standard (240 μM BaCl2 in 0.18 M H2SO4). This culture was diluted ten-fold with Iso-sensitest broth before use. Peptoids were initially dissolved in DMSO (5 mM) and diluted further in Iso-sensitest broth to achieve a concentration range of 4–200 μM using 2-fold serial dilutions. 50 μl of inoculum and 50 μl of peptoid solution were added to each test well (final concentration range of 2–100 μM). Experiments were performed in triplicate. A positive control for bacterial growth contained only the inoculum and Iso-sensitest broth. Other controls contained the inoculum and serial dilutions of ampicillin (from 250 μg mL^–1 to 2 μg mL^–1), serial dilutions of DMSO and the inoculum to confirm no inhibitory effect on bacterial growth, and Iso-sensitest broth alone as a sterile control. […] Quantitative data was attained from absorbance values using a Biotek Synergy H4 plate reader.
Antibacterial MIC determination
as §1, with “(W3110 / ATCC27325, F-, λ-,” for “(W3110/ATCC27325, F^–, λ^–,”, “Oxford / ATCC9144)” for “Oxford/ATCC9144)”, “°C.” for “°C. A single colony was selected and placed in 5 mL of Iso-sensitest broth (Oxoid, ThermoScientific) and incubated with shaking for 16–18 h at 37 °C to provide liquid cultures for testing.”
A single colony was selected and placed in 5 mL of Iso-sensitest broth (Oxoid, ThermoScientific) and incubated with shaking for 16-18 h at 37 °C to provide liquid […]
MIC values were obtained according to the protocol described by J. M. Andrews et al.1 and were conducted in 96-well plates (Sarstedt). Bacteria were grown from overnight cultures in Iso-sensitest broth to an A650nm of 0.07 equivalent to a 0.5 MacFarland standard (240 μM BaCl2 in 0.18 M H2SO4). This culture was diluted ten-fold with Iso-sensitest broth before use. Peptoids were initially dissolved in DMSO (5 mM) and diluted further in Iso-sensitest broth to achieve a concentration range of 4 – 200 µM using 2-fold serial dilutions. 50 μl of inoculum and 50 μl of peptoid solution were added to each test well (final concentration range of 2 – 100 µM). Experiments were performed in triplicate. A positive control for bacterial growth contained only the inoculum and Iso-sensitest broth. Other controls contained the inoculum and serial dilutions of ampicillin (from 250 µg/mL to 2 µg/mL), serial dilutions of DMSO and the inoculum to confirm no inhibitory effect on bacterial growth, and Iso-sensitest broth alone as a sterile control. […]
growth after incubation at 37 °C for 16 h with shaking. Quantitative data was attained from absorbance values using a Biotek Synergy H4 plate reader.

Row | SMILES | Selectivity Index HaCaT, E. coli | Selectivity Index HepG2, E. coli | Average selectivity E. coli (average of selectivity to HaCaT and HepG2, selectivity = toxicity/activity)
1 | NCCCCNCC(=O)N(CC(=O)N(CC(=O)N(CCCCN)CC(=O)N(CC(=O)N(CC(=O)N(CCCCN)CC(=O)N(CC(=O)N(CC(N)=O)Cc1ccccc1)Cc1ccccc1)Cc1ccccc1)Cc1ccccc1)Cc1ccccc1)Cc1ccccc1 [Peptoid 5, (NLysNpheNphe)3] | > 2 | > 2 | > 2
2 | NCCCCNCC(=O)N(CC(=O)N(CC(=O)N(CCCCN)CC(=O)N(CC(=O)N(CC(=O)N(CCCCN)CC(=O)N(CC(=O)N(CC(=O)N(CCCCN)CC(=O)N(CC(=O)N(CC(N)=O)Cc1ccc(F)cc1)Cc1ccc(F)cc1)Cc1ccc(F)cc1)Cc1ccc(F)cc1)Cc1ccc(F)cc1)Cc1ccc(F)cc1)Cc1ccc(F)cc1)Cc1ccc(F)cc1 [Peptoid 22, (NLysNpfbNpfb)4] (H-[Nlys][N(4-F-Bzl)Gly][N(4-F-Bzl)Gly][Nlys][N(4-F-Bzl)Gly][N(4-F-Bzl)Gly][Nlys][N(4-F-Bzl)Gly][N(4-F-Bzl)Gly][Nlys][N(4-F-Bzl)Gly][N(4-F-Bzl)Gly]-NH2) | 4 | 2 | 
3 | NCCCCNCC(=O)N(CC(=O)N(CC(=O)N(CCCCN)CC(=O)N(CC(=O)N(CC(=O)N(CCCCN)CC(=O)N(CC(=O)N(CC(N)=O)Cc1ccc(F)cc1)Cc1ccc(F)cc1)Cc1ccc(F)cc1)Cc1ccc(F)cc1)Cc1ccc(F)cc1)Cc1ccc(F)cc1 [Peptoid 23, (NLysNpfbNpfb)3] (H-[Nlys][N(4-F-Bzl)Gly][N(4-F-Bzl)Gly][Nlys][N(4-F-Bzl)Gly][N(4-F-Bzl)Gly][Nlys][N(4-F-Bzl)Gly][N(4-F-Bzl)Gly]-NH2) | > 8 | 3 | 
